The results in this text go back to patent US20220372120A1 (GEMINI THERAPEUTICS SUB, published 2022).

Sequences of proteins named here, by UniProt entry; tags and fusion partners are left off. Residues count along the entry.
UniProt P08603, residues 19-1231: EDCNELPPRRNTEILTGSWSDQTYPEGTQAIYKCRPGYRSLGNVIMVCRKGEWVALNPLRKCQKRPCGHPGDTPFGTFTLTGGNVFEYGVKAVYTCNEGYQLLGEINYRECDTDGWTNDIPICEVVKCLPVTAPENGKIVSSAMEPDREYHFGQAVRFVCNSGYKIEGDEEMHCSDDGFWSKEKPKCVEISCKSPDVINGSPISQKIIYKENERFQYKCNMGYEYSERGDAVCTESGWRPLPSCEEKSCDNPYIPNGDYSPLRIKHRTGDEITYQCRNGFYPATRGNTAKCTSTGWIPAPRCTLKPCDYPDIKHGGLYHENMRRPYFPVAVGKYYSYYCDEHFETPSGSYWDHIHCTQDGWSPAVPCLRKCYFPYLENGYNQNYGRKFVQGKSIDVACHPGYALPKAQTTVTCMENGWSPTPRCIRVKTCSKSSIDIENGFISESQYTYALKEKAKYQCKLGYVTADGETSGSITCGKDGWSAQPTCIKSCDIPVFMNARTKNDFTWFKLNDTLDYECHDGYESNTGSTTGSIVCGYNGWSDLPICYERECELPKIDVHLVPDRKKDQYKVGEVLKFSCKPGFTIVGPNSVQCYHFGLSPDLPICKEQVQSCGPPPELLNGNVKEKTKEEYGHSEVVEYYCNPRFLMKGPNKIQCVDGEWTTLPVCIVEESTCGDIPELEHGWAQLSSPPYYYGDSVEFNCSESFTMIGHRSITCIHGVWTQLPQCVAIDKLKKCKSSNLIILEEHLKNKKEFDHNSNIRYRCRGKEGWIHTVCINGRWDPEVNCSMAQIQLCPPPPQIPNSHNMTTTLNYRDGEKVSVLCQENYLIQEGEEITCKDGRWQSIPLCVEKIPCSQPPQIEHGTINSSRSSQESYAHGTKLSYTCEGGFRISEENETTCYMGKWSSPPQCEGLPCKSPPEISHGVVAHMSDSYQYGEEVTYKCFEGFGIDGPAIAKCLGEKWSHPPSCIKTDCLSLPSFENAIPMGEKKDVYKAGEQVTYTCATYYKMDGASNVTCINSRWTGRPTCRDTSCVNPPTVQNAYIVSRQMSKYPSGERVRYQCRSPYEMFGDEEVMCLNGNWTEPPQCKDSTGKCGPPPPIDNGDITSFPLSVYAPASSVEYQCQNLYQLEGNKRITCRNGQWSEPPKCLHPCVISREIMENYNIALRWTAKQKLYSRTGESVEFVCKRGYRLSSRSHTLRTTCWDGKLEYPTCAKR

For the assay, the target named is Human purified factor H (human, UniProt P08603 19-1231). Description: ELISA, mAb captured on RM-19 plate, biotinylated FH with excess unlabeled FH fragments. In general terms: An ELISA detects its analyte on a solid surface through an enzyme-linked reagent.

These are yes or no findings as the source states them, for the method shown. Some entries that bind do so weakly or less than the wild type.

B1: FH.07 (antibody, V domains shown)
VH: QVQLQQSGPGLVQPSQSLSITCTVSDFSLARYGVHWIRQSPGKGLEWLGVIWSGGTADYNAAFISRLNINKDNSKSQVFFKMNSLQANDTAIYYCARNFGNYAVDYWGQGTS
VL: QIVLSQSPTFLSASPGEKVTVTCRASSSVKYMHWYQQKPGASPKPWIFATSNLASGVPARFSGSGSGTSYSLTISRVEAEDAATYYCQQWSIIPPTFGNGTKLELK
In the case of B1, the binding entry is “binds”.
